Laboratory results published in article PMC5145142.
Results are given in words; binding and its absence hold for the method and conditions named. A result given as binding can be weak or reduced; the word gives no strength.

Biological target: T1, purified recombinant equine CXC-chemokine receptor 6 (EqCXCR6) protein (horse (Equus caballus)) (UniProt F6XQ88)
T1 sequence: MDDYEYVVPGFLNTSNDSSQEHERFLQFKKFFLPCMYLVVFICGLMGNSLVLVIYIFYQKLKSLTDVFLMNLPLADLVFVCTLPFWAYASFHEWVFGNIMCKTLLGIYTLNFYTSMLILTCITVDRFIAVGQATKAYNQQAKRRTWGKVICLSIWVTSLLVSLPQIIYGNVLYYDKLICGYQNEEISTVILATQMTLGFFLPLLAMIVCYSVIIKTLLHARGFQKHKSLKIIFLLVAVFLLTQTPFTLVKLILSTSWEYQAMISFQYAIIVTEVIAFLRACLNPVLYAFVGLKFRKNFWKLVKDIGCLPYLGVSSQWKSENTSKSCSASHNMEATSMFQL
Experiment: far-Western, overlay or dot blot; Far-WB: 20 μg purified recombinant EqCXCR6 or BSA on SDS-PAGE, PVDF, denatured and renatured with Gn-HCl, incubated with purified recombinant EqCXCL16S or EqCXCL16R (5 μg/ml), detected with Rb α-EqCXCL16 Ab; both purified

Row | Substance | binding
1 | purified recombinant EqCXCL16R protein produced in E. coli (horse (Equus caballus)) | binds
2 | purified recombinant EqCXCL16S protein produced in E. coli (horse (Equus caballus)) | binds
